## Library screen at single concentrations

Toxoplasma: 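Assay of Toxoplasma gondii numbers, read through their beta-galactosidase reporter with a colour substrate. Compounds at 10 µM. Higher reads as fewer parasites (inferred from which compounds were picked for retests). About 67,000 compounds were tested under these conditions; 0.38% (about 260) showed 50% or more at least once.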
Leishmania in macrophages: 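Cell assay of Leishmania donovani living inside macrophages; the read-out is not stated. Compounds at 30 µM. The record gives no direction; compounds that gave an IC50 in retests scored well above the rest, so higher reads as stronger inhibition. Of about 69,000 compounds tested this way, about 1,000 (1.5%) reached 50% or more in at least one test.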

Values are the deposited “Percent Effect”, in %. How 0% and 100% were set is not recorded. Most values in the screen are low, and negative values occur. Compounds were drawn at random from those tested, without regard to their results. Two or more numbers in one place are separate tests of the same structure; such repeats can differ widely. A dash means the value is not listed here; it may have been measured.

structure	Toxoplasma	Leishmania in macrophages
COc1ccc2c(ccn2CCC(=O)NCCCC(=O)O)c1	0.8086	35.6
COC(=O)C1(NCc2nc(C)c(C)o2)CCC(C)CC1 (centres unmarked)	-0.06242	33.72
Cn1cnc(S(=O)(=O)N2CCCC2c2cnccn2)c1 (centres unmarked)	3.126	9.852
COC(=O)C1(NCC(=O)Nc2cc(C)ccc2OC)CCCCC1	-13.85	26.91
COc1ccc(CC(=O)NCC(O)c2sccc2C)cc1OC (centres unmarked)	13.54	16.41
O=C(c1cnccn1)N1CCN(Cc2ccncc2)c2ncccc2C1	0.2137	10.78
CCCS(=O)(=O)N1CCOC2(CCCN(Cc3ccccn3)C2)C1.O=C(O)C(F)(F)F (centres unmarked)	3.192	-5.315
CC(C)(C)c1cc(NC(=O)CN(Cc2ccco2)Cc2cccs2)on1	4.518	-1.721
Cc1nnc(NC(=O)CN(C)C2CCCN(c3cccnn3)C2)s1 (centres unmarked)	2.059	-2.236
O=C(C1CCS(=O)(=O)CC1)N1CCC(Cc2ccc(F)cc2)CC1	3.889	-5.249
Cc1ccnc(C2(C)CCCN2C(=O)c2cnccn2)n1 (centres unmarked)	-4.179	15.02
O=C(NCCNc1ncccn1)C1CCN(C(=O)C2CC2)CC1	3.662	-3.108
CC(CN1CCOCC1)n1cncc1-c1cnn(Cc2ccccc2)c1 (centres unmarked)	20.1	-24.02
CN(C)C[C@@H]1CN(C(=O)Cc2ccc3ccccc3c2)C[C@@H]1CO	-0.7905	-3.237
COc1ccc(Cl)cc1CN(C)C(=O)CN1C(=O)OC[C@@H]1C(C)C	21.26	-32.96
Cn1nnc2c1C(COCC1CC1)CN(Cc1ccoc1)C2.O=C(O)C(F)(F)F (centres unmarked)	6.718	19.46
O=C(c1cnc2ccccc2c1)N1CCCC(O)(CN2CCCC2)C1 (centres unmarked)	-7.528	-0.2978
CSc1ccsc1C(=O)NCCNC(=O)C1CC1	-4.756	2.469
O=C(O)C(F)(F)F.[H][C@@]12CCN(CC(=O)NC)C[C@]1([H])CN(C(=O)c1ccc(C)cc1)C2	34.53	2.501
CC1CCN(C)c2ccccc2N1C(=O)c1ccn(C)c(=O)c1 (centres unmarked)	3.196	-0.4562
[H][C@@]12CS(=O)(=O)C[C@]1([H])N(Cc1cnn(-c3ccc(C)cc3)c1)CCN2C	-15.02	18.54
Cn1cc(CCCNS(=O)(=O)N2CCCC2c2ccco2)cn1 (centres unmarked)	15.41	-3.057
COc1ccccc1CN1CC[C@]2(C[C@H](OC)CO2)C1.O=C(O)C(F)(F)F	2.152	-6.713
c1cc(CNc2ncc(-c3cnccn3)c([C@@H]3CCCO3)n2)ccn1	-	-6.987
O=C(O)C(F)(F)F.[H][C@]12C[C@@H](Cn3cncn3)N(c3nccs3)[C@@]1([H])CCN(C(C)=O)C2	-0.266	4.746
CN(C(=O)OC(C)(C)C)C1CCN(C(=O)c2cc(Cl)c[nH]2)C1 (centres unmarked)	1.685	9.253
O=C(c1cccnc1)N1CCc2[nH]nc(Nc3ccccc3)c2C1	7.944	16.13
Cc1cnn(CC2CCCCN2C(=O)c2ccc3[nH]c(=O)[nH]c3c2)c1 (centres unmarked)	2.279	-3.785
COc1ncccc1NC(=O)NCC1CCS(=O)(=O)C1 (centres unmarked)	6.035	15.49
c1ccc2c(c1)CC(N1CCCN(Cc3cccc4nonc34)CC1)C2	-12	-40.99
Cl.Cl.[H][C@@]12CNCC[C@]1([H])N(c1nccs1)[C@H](Cn1cncn1)C2	-0.266	3.649
Cc1ncc(CNC(=O)Cc2ccc(Cl)cc2)c(C2CCCN2C)n1 (centres unmarked)	5.445	14.61
[H][C@@]12CCN[C@]1([H])C(=O)NC[C@H](CCC(=O)NCc1ccc(F)cc1)N2C	-7.079	-14.04
CSCc1cc(C(=O)NC2(C#N)CCSC2)ccc1F (centres unmarked)	16.24	40.58
O=C(O)C(F)(F)F.[H][C@]12CCN(Cc3c(C)noc3C)[C@@]1([H])CC[C@H](COCC(C)C)O2	-0.3205	-16.01
CC(C)C1CN(Cc2c[nH]cn2)CCCN1CC1CC1 (centres unmarked)	0.9735	36.49
Cn1nccc1NC(=O)CN1CCc2sccc2C1	8.42	2.876
Cc1cnn(CCNCC(O)COc2cccc(C(F)(F)F)c2)c1 (centres unmarked)	-5.07	17.41
Cn1cc(CN2CCC(c3cc(COc4ccc(Cl)cc4)[nH]n3)C2)cn1 (centres unmarked)	-12.14	32.43
Cc1cc(C)c(C(=O)N2CCCC(C(=O)CCc3ccccc3)C2)cn1 (centres unmarked)	-17.76	-2.278
CC(=O)N1CCCN(C(=O)NCCCc2cn[nH]c2C)CC1	-12.44	0.5544
O=C(O)C(F)(F)F.[H][C@@]12COC[C@]1(CNC(=O)C1CCC1)CN(Cc1cccc(C)c1)C2	-19	-19.86
CCc1nc(C2CCCN2Cc2cc(C)nc3ccccc23)no1 (centres unmarked)	14.75	26.92
COc1ccccc1NC(=O)NC(C)c1nc[nH]n1 (centres unmarked)	-2.145	-10.24
N#Cc1cccnc1N1CCC(OCCc2ccccc2)CC1	15.09	19.65
COC(=O)NCCC(=O)NC(C)Cc1ccccc1Br (centres unmarked)	-4.933	34.49
COc1cc2c(cc1OC)C(=O)C(Sc1nnnn1C)C2 (centres unmarked)	0	21.24
CC(CC(=O)NCCS(N)(=O)=O)C1CCCCC1 (centres unmarked)	-9.441	-34
COc1ccccc1-c1nccnc1C1CCN(C(C)=O)CC1	-33.98	11.87 & 10.92
CC(C)(C)c1nnc(CN2CCN(CC(O)c3ccccc3)CC2)o1 (centres unmarked)	-	3.461
NC(=O)C1(CNC(=O)CCc2ccc(Cl)s2)CCOCC1	5	12.37
COCC(=O)N1CCN(C)C(=O)C(Cc2ccc(-c3cccs3)cc2)C1 (centres unmarked)	4.651	-0.2341
O=C(O)C(F)(F)F.O=C(O)C(F)(F)F.[H][C@@]12CN(Cc3csc(C)n3)C[C@]1([H])CN(C(=O)Cc1ccccn1)C2	-2.157	-5.043
COc1ccc(-n2c(CCC(=O)O)nc3ccccc32)cc1CO	9.826	21.1
OC1(CNc2cc(C(F)(F)F)nc3ccccc23)CCOCC1	1.153	5.823
COC(=O)CN(Cc1ccccc1C)C(=O)CCNC(=O)C(C)(C)C	-3.842	-1.938
CN(C)c1cc(C(F)(F)F)cc(-c2ccc(C(=O)O)cc2)n1	-9.271	-10.11
COc1ccc2c(c1)CCCN(CC(=O)NCC1CCCO1)C2 (centres unmarked)	-2.971	55.19
Cc1ccc(=O)n(CC2(O)CCN(Cc3cc(C)c(O)c(C)c3)CC2)n1.O=C(O)CC(O)(CC(=O)O)C(=O)O	19.92	-8.478
CCCc1nnc(C(=O)N(C)Cc2ccc(OC)cc2)o1	2.363	26.74
Cc1nccnc1-n1c(COCC(=O)O)nc2c(C)cccc21	1.531	11.83
CCN1CCN(Cc2coc(-c3cccc(F)c3)n2)CC1	1.376	38.8
CC(=O)N1CCN(Cc2coc(-c3cccc(F)c3)n2)CC1	-12.63	-1.281
Cn1ncc2c(NC3CCC3)nc(-c3ccncc3)nc21	2.689	16.5
CCN(CC)S(=O)(=O)CC(=O)N1CCc2ccc(F)cc21	-8.975	-13.96
Cc1cc(CN2CCc3nn(C)c(=O)cc3C2)on1	-7.328	11.17
COc1cc(CN(C(=O)Nc2cccnc2OC)C2CC2)ccc1O	0.3176	-3.988
COc1ccc(C(C(=O)O)N(C)CCN2CCCC2)c(C)c1 (centres unmarked)	-0.3873	3.306
CC(CN(C)Cc1cccc(-n2cccn2)c1)C(F)(F)F (centres unmarked)	13.75	-9.892
Cc1nccc(C2CN(C(=O)c3cncnc3)C2)n1	7.817	18.32
CC(=O)N(C)Cc1cccc(NC(=O)N(C)CCc2cccs2)c1	2.947	-26.7
COc1ccc(Br)c(C(=O)N2CCC(c3n[nH]c(C4CC4)n3)CC2)c1	-7.255	10.29
CCOC(=O)N1CCN(C(=O)c2sc(-c3ccncc3)nc2C)CC1	24.24	3.973
CN(Cc1cn2c(n1)CN(c1ncc(F)cn1)CC2)Cc1ccco1.O=C(O)C(F)(F)F.O=C(O)C(F)(F)F	2.163	22.86
c1cncc(-c2noc(CN3CCOC(Cn4cccn4)C3)n2)c1 (centres unmarked)	-2.131	13.85
Cc1cc2[nH]c(=O)oc2cc1S(=O)(=O)N1CCCC(N(C)C)CC1 (centres unmarked)	-2.931	21.47
O=c1c2cn[nH]c2nc(SCCN2CCOCC2)n1-c1ccccc1	3.42	-2.872

Some entries from above, unchanged:

For COc1ccccc1CN1CC[C@]2(C[C@H](OC)CO2)C1.O=C(O)C(F)(F)F the result was Toxoplasma: 2.152%; Leishmania in macrophages: -6.713%.
For Cc1ccc(=O)n(CC2(O)CCN(Cc3cc(C)c(O)c(C)c3)CC2)n1.O=C(O)CC(O)(CC(=O)O)C(=O)O the result was Toxoplasma: 19.92%; Leishmania in macrophages: -8.478%.
For CC1CCN(C)c2ccccc2N1C(=O)c1ccn(C)c(=O)c1 (centres unmarked) the result was Toxoplasma: 3.196%; Leishmania in macrophages: -0.4562%.
For O=C(O)C(F)(F)F.[H][C@@]12CCN(CC(=O)NC)C[C@]1([H])CN(C(=O)c1ccc(C)cc1)C2 the result was Toxoplasma: 34.53%; Leishmania in macrophages: 2.501%.
For CC(C)(C)c1cc(NC(=O)CN(Cc2ccco2)Cc2cccs2)on1 the result was Toxoplasma: 4.518%; Leishmania in macrophages: -1.721%.
For CSCc1cc(C(=O)NC2(C#N)CCSC2)ccc1F (centres unmarked) the result was Toxoplasma: 16.24%; Leishmania in macrophages: 40.58%.

Data taken from ChEMBL document CHEMBL3988442, “University of Dundee, Small-Polar-MMV Screening Library” (2021).